In the supplement of paper PMC7661543:
± gives the standard deviation of the averaged measurements. Differences between knockout arms are mostly noise.

Test system: SKBR3
Assay: relative cell number vs DMSO control (72 h) (% of DMSO); higher = less growth inhibition (more cells)
Description: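 QMAP-Seq: a pool of 5 breast cancer cell lines (ZR-75-1, SKBR3, HCC-38, MDA-MB-231, BT-20), each carrying 12 doxycycline-inducible Cas9 sgRNA perturbations (11 knockouts plus non-targeting sgNT), was treated with compounds for 72 h at four 10-fold doses (10 nM-10 uM or 1 nM-1 uM range). Barcodes were amplified and sequenced, and cell number was interpolated from 293T spike-in standard curves. The result is expressed as % of the median of DMSO wells. Two biological replicates.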

CC1(C)CCC(c2ccc(Cl)cc2)=C(CN2CCN(c3ccc(C(=O)NS(=O)(=O)c4ccc(N[C@H](CCN5CCOCC5)CSc5ccccc5)c(S(=O)(=O)C(F)(F)F)c4)cc3)CC2)C1 [Navitoclax]
Details | relative cell number
sgRNA knockout: sgATF3, 10 nM | 103 ± 18
sgRNA knockout: sgATF3, 100 nM | 144 ± 42
sgRNA knockout: sgATF3, 1000 nM | 94.6 ± 1.1
sgRNA knockout: sgATF3, 10000 nM | 79.6 ± 28
sgRNA knockout: sgATF4, 10 nM | 105 ± 9.4
sgRNA knockout: sgATF4, 100 nM | 110 ± 14
sgRNA knockout: sgATF4, 1000 nM | 84.2 ± 9.7
sgRNA knockout: sgATF4, 10000 nM | 70.52 ± 0.34
sgRNA knockout: sgATF6, 10 nM | 93.3 ± 20
sgRNA knockout: sgATF6, 100 nM | 111 ± 25
sgRNA knockout: sgATF6, 1000 nM | 81.9 ± 4
sgRNA knockout: sgATF6, 10000 nM | 63.4 ± 8.8
sgRNA knockout: sgATG7, 10 nM | 102 ± 13
sgRNA knockout: sgATG7, 100 nM | 110 ± 3.8
sgRNA knockout: sgATG7, 1000 nM | 68.1 ± 22
sgRNA knockout: sgATG7, 10000 nM | 68.3 ± 11
sgRNA knockout: sgERN1, 10 nM | 91.3 ± 34
sgRNA knockout: sgERN1, 100 nM | 106 ± 1.8
sgRNA knockout: sgERN1, 1000 nM | 94.9 ± 27
sgRNA knockout: sgERN1, 10000 nM | 76 ± 46
sgRNA knockout: sgHSF1, 10 nM | 106 ± 27
sgRNA knockout: sgHSF1, 100 nM | 88.5 ± 9.7
sgRNA knockout: sgHSF1, 1000 nM | 79.6 ± 10
sgRNA knockout: sgHSF1, 10000 nM | 71.6 ± 13
sgRNA knockout: sgHSF2, 10 nM | 97.4 ± 6.7
sgRNA knockout: sgHSF2, 100 nM | 100 ± 6.5
sgRNA knockout: sgHSF2, 1000 nM | 84.7 ± 7
sgRNA knockout: sgHSF2, 10000 nM | 65.1 ± 12
sgRNA knockout: sgKEAP1, 10 nM | 76.6 ± 26
sgRNA knockout: sgKEAP1, 100 nM | 103 ± 4.7
sgRNA knockout: sgKEAP1, 1000 nM | 81.7 ± 17
sgRNA knockout: sgKEAP1, 10000 nM | 72.8 ± 3.8
sgRNA knockout: sgNFE2L2, 10 nM | 96.7 ± 16
sgRNA knockout: sgNFE2L2, 100 nM | 110 ± 42
sgRNA knockout: sgNFE2L2, 1000 nM | 77.8 ± 6.9
sgRNA knockout: sgNFE2L2, 10000 nM | 61.7 ± 9.3
sgRNA knockout: sgSLC35F2, 10 nM | 105 ± 3.5
sgRNA knockout: sgSLC35F2, 100 nM | 88.7 ± 1.9
sgRNA knockout: sgSLC35F2, 1000 nM | 74.1 ± 3.1
sgRNA knockout: sgSLC35F2, 10000 nM | 57.7 ± 7.8
sgRNA knockout: sgXBP1, 10 nM | 90.3 ± 12
sgRNA knockout: sgXBP1, 100 nM | 116 ± 6.5
sgRNA knockout: sgXBP1, 1000 nM | 94 ± 14
sgRNA knockout: sgXBP1, 10000 nM | 67.8 ± 1.3

Cc1ccc(C(=O)Cn2c3c(sc2=N)CCCC3)cc1 [PifithrinAlpha]
Details | relative cell number
sgRNA knockout: sgATF3, 10 nM | 107 ± 15
sgRNA knockout: sgATF3, 100 nM | 107 ± 20
sgRNA knockout: sgATF3, 1000 nM | 90.6 ± 5.3
sgRNA knockout: sgATF3, 10000 nM | 97.9 ± 8.8
sgRNA knockout: sgATF4, 10 nM | 78.9 ± 8.5
sgRNA knockout: sgATF4, 100 nM | 105 ± 11
sgRNA knockout: sgATF4, 1000 nM | 81.2 ± 16
sgRNA knockout: sgATF4, 10000 nM | 85.9 ± 1.9
sgRNA knockout: sgATF6, 10 nM | 91.5 ± 9.1
sgRNA knockout: sgATF6, 100 nM | 71.7 ± 1
sgRNA knockout: sgATF6, 1000 nM | 92.8 ± 6.9
sgRNA knockout: sgATF6, 10000 nM | 67.4 ± 0.69
sgRNA knockout: sgATG7, 10 nM | 109 ± 8.8
sgRNA knockout: sgATG7, 100 nM | 85.1 ± 23
sgRNA knockout: sgATG7, 1000 nM | 102 ± 18
sgRNA knockout: sgATG7, 10000 nM | 92.7 ± 12
sgRNA knockout: sgERN1, 10 nM | 103 ± 3.3
sgRNA knockout: sgERN1, 100 nM | 86.2 ± 16
sgRNA knockout: sgERN1, 1000 nM | 101 ± 12
sgRNA knockout: sgERN1, 10000 nM | 77.8 ± 31
sgRNA knockout: sgHSF1, 10 nM | 110 ± 7.4
sgRNA knockout: sgHSF1, 100 nM | 86.4 ± 2.9
sgRNA knockout: sgHSF1, 1000 nM | 79 ± 4
sgRNA knockout: sgHSF1, 10000 nM | 83.9 ± 5
sgRNA knockout: sgHSF2, 10 nM | 96.8 ± 7.3
sgRNA knockout: sgHSF2, 100 nM | 94.2 ± 23
sgRNA knockout: sgHSF2, 1000 nM | 81.5 ± 10
sgRNA knockout: sgHSF2, 10000 nM | 78.1 ± 7
sgRNA knockout: sgKEAP1, 10 nM | 87.3 ± 8.2
sgRNA knockout: sgKEAP1, 100 nM | 103 ± 3.9
sgRNA knockout: sgKEAP1, 1000 nM | 88 ± 11
sgRNA knockout: sgKEAP1, 10000 nM | 85.5 ± 2.3
sgRNA knockout: sgNFE2L2, 10 nM | 83.1 ± 13
sgRNA knockout: sgNFE2L2, 100 nM | 80.4 ± 6.5
sgRNA knockout: sgNFE2L2, 1000 nM | 102 ± 8.1
sgRNA knockout: sgNFE2L2, 10000 nM | 84.1 ± 17
sgRNA knockout: sgSLC35F2, 10 nM | 104 ± 19
sgRNA knockout: sgSLC35F2, 100 nM | 94.9 ± 17
sgRNA knockout: sgSLC35F2, 1000 nM | 90 ± 6.5
sgRNA knockout: sgSLC35F2, 10000 nM | 76 ± 28
sgRNA knockout: sgXBP1, 10 nM | 119 ± 15
sgRNA knockout: sgXBP1, 100 nM | 82.5 ± 19
sgRNA knockout: sgXBP1, 1000 nM | 94.2 ± 5.9
sgRNA knockout: sgXBP1, 10000 nM | 77.5 ± 3

COC(=O)/C=C/C(=O)OC [DimethylFumarate]
Details | relative cell number
sgRNA knockout: sgATF3, 10 nM | 104 ± 18
sgRNA knockout: sgATF3, 100 nM | 97.3 ± 17
sgRNA knockout: sgATF3, 1000 nM | 91.4 ± 39
sgRNA knockout: sgATF3, 10000 nM | 105 ± 13
sgRNA knockout: sgATF4, 10 nM | 85.5 ± 12
sgRNA knockout: sgATF4, 100 nM | 82.8 ± 15
sgRNA knockout: sgATF4, 1000 nM | 74.9 ± 8
sgRNA knockout: sgATF4, 10000 nM | 91.6 ± 32
sgRNA knockout: sgATF6, 10 nM | 81.7 ± 5.5
sgRNA knockout: sgATF6, 100 nM | 85.7 ± 9.8
sgRNA knockout: sgATF6, 1000 nM | 92.8 ± 35
sgRNA knockout: sgATF6, 10000 nM | 86.6 ± 9.9
sgRNA knockout: sgATG7, 10 nM | 112 ± 22
sgRNA knockout: sgATG7, 100 nM | 84.7 ± 33
sgRNA knockout: sgATG7, 1000 nM | 87.1 ± 1.9
sgRNA knockout: sgATG7, 10000 nM | 93.4 ± 1.9
sgRNA knockout: sgERN1, 10 nM | 95.7 ± 24
sgRNA knockout: sgERN1, 100 nM | 92.5 ± 6.3
sgRNA knockout: sgERN1, 1000 nM | 109 ± 31
sgRNA knockout: sgERN1, 10000 nM | 89.9 ± 9.1
sgRNA knockout: sgHSF1, 10 nM | 106 ± 9.2
sgRNA knockout: sgHSF1, 100 nM | 83.5 ± 13
sgRNA knockout: sgHSF1, 1000 nM | 93.6 ± 19
sgRNA knockout: sgHSF1, 10000 nM | 106 ± 44
sgRNA knockout: sgHSF2, 10 nM | 81.3 ± 7.5
sgRNA knockout: sgHSF2, 100 nM | 78.2 ± 8.5
sgRNA knockout: sgHSF2, 1000 nM | 86.4 ± 3.3
sgRNA knockout: sgHSF2, 10000 nM | 102 ± 22
sgRNA knockout: sgKEAP1, 10 nM | 80.1 ± 24
sgRNA knockout: sgKEAP1, 100 nM | 67.4 ± 4.2
sgRNA knockout: sgKEAP1, 1000 nM | 85.4 ± 5.4
sgRNA knockout: sgKEAP1, 10000 nM | 107 ± 14
sgRNA knockout: sgNFE2L2, 10 nM | 73.2 ± 11
sgRNA knockout: sgNFE2L2, 100 nM | 101 ± 9.9
sgRNA knockout: sgNFE2L2, 1000 nM | 71.9 ± 20
sgRNA knockout: sgNFE2L2, 10000 nM | 100 ± 26
sgRNA knockout: sgSLC35F2, 10 nM | 92.9 ± 8.9
sgRNA knockout: sgSLC35F2, 100 nM | 90.9 ± 3.1
sgRNA knockout: sgSLC35F2, 1000 nM | 72.6 ± 27
sgRNA knockout: sgSLC35F2, 10000 nM | 87 ± 1.7
sgRNA knockout: sgXBP1, 10 nM | 97.3 ± 18
sgRNA knockout: sgXBP1, 100 nM | 81.5 ± 16
sgRNA knockout: sgXBP1, 1000 nM | 92.6 ± 2.6
sgRNA knockout: sgXBP1, 10000 nM | 96.6 ± 18
